The supplement of paper PMC10849652
Some of the results follow.

Chains of the proteins cited; added tags and fusions are not shown. Lines headed by an entry give the natural chain unless they say otherwise; changes in a name come on top.
UniProt P18084: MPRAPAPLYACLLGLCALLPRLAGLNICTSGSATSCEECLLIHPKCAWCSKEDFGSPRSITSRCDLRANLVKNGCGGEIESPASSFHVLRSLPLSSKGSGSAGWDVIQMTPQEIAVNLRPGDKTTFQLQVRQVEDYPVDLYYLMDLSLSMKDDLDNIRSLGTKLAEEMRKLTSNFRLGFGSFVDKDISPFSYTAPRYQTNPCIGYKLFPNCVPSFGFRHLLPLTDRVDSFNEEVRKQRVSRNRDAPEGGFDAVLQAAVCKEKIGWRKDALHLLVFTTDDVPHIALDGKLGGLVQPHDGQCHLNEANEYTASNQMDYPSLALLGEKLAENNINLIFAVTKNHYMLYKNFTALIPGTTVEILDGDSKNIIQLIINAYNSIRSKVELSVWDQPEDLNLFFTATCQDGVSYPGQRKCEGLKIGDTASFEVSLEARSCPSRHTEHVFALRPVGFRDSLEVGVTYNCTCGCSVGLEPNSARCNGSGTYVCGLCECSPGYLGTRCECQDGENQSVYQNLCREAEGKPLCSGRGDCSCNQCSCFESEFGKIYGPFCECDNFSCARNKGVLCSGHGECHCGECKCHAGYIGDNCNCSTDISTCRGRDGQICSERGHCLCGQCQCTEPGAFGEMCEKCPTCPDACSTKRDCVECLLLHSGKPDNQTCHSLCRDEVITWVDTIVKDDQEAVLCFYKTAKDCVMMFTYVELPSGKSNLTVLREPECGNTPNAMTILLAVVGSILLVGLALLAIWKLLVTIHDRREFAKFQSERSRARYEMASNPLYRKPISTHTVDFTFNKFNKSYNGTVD
UniProt O15397, whole entry, looked up: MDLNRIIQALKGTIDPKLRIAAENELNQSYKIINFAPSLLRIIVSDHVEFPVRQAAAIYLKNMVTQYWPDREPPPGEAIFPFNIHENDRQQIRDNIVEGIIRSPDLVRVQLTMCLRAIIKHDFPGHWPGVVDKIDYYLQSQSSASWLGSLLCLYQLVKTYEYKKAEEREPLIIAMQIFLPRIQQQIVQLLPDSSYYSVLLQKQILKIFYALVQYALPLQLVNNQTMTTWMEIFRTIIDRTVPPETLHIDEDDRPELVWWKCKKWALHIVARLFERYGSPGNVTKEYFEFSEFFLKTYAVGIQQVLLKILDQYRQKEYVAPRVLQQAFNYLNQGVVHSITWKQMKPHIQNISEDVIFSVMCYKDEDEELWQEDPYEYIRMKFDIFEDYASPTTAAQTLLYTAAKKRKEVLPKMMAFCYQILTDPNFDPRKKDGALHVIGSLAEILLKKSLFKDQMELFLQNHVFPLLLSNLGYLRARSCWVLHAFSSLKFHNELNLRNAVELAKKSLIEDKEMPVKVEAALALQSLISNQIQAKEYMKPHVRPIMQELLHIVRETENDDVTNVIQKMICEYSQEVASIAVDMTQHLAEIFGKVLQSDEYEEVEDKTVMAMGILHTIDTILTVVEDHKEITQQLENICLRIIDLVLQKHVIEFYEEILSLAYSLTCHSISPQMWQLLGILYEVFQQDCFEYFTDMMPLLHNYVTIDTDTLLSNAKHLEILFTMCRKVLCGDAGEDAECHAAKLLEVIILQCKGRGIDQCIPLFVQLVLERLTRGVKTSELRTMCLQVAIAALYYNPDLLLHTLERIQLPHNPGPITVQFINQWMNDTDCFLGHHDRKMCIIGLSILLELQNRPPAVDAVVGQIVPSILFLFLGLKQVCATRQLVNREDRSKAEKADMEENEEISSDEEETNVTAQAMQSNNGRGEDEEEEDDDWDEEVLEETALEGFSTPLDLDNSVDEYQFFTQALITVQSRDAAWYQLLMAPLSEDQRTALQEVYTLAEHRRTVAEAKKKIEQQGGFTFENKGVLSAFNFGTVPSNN
UniProt Q8TB96: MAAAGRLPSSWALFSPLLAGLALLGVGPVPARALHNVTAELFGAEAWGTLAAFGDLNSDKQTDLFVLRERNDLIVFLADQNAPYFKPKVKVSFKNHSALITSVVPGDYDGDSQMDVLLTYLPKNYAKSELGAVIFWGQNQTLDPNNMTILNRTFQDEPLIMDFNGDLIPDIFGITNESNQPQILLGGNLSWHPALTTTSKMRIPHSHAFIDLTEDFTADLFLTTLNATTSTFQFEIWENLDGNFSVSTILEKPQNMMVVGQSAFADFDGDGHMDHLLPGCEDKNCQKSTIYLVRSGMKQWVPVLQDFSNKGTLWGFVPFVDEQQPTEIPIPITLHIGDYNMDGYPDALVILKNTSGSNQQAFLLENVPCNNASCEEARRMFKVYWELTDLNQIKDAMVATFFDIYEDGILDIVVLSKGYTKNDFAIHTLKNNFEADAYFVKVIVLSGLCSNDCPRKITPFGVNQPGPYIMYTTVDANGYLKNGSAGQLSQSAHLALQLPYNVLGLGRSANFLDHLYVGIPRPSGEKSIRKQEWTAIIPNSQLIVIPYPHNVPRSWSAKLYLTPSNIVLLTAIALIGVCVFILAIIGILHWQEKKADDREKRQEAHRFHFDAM
UniProt Q8TEX9: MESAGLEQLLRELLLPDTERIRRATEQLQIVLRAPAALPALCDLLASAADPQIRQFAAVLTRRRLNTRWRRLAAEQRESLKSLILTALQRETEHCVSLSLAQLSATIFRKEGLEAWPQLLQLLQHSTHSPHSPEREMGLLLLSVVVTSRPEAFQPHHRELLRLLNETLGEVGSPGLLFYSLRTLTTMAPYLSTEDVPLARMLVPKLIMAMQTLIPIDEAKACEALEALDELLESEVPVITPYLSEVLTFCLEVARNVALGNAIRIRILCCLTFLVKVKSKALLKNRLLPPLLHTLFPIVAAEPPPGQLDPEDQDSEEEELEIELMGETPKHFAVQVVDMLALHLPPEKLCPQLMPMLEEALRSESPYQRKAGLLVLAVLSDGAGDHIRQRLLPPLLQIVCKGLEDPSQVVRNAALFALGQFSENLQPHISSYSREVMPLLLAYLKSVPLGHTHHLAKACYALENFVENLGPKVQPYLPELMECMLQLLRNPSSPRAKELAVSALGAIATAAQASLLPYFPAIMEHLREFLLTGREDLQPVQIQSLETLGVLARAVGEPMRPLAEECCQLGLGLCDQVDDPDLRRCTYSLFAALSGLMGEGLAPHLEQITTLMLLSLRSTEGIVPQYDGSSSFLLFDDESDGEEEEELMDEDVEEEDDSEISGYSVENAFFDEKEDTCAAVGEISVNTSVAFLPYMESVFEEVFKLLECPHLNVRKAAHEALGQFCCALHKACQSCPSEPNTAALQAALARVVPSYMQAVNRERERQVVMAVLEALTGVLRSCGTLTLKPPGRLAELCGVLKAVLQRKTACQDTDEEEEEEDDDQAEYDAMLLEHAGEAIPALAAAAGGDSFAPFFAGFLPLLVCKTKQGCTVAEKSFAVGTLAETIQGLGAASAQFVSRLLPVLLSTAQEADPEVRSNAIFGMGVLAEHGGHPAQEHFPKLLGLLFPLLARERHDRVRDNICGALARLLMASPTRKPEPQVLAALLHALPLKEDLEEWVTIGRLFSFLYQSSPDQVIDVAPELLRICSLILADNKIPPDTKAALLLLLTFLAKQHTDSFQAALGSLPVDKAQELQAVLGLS
UniProt Q75QN2, whole entry, looked up: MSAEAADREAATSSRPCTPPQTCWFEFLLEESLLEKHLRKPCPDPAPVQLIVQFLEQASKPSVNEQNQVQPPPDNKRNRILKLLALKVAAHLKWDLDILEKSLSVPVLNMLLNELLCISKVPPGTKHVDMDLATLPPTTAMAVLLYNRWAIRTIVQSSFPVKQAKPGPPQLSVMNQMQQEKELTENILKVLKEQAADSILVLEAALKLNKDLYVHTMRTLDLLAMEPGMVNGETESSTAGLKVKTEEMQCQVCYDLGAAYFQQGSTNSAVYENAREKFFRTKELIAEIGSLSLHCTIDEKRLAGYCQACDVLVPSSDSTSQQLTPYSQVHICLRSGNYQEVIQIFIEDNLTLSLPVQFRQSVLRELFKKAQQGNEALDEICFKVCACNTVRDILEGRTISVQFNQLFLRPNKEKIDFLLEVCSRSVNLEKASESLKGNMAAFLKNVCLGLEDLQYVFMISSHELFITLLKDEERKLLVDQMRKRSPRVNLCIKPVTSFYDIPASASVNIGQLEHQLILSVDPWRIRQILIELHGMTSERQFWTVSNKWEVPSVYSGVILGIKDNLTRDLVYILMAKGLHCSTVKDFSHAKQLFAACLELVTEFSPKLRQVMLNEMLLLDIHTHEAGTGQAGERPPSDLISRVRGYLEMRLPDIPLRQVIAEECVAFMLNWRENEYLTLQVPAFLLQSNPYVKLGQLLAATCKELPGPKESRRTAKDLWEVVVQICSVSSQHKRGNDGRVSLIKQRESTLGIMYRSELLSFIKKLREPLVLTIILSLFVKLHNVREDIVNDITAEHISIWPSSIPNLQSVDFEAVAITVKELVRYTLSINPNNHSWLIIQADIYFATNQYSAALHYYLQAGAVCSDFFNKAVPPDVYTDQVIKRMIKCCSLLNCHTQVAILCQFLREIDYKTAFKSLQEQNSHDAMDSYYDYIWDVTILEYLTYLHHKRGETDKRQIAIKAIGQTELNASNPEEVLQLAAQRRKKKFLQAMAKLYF
UniProt P48200: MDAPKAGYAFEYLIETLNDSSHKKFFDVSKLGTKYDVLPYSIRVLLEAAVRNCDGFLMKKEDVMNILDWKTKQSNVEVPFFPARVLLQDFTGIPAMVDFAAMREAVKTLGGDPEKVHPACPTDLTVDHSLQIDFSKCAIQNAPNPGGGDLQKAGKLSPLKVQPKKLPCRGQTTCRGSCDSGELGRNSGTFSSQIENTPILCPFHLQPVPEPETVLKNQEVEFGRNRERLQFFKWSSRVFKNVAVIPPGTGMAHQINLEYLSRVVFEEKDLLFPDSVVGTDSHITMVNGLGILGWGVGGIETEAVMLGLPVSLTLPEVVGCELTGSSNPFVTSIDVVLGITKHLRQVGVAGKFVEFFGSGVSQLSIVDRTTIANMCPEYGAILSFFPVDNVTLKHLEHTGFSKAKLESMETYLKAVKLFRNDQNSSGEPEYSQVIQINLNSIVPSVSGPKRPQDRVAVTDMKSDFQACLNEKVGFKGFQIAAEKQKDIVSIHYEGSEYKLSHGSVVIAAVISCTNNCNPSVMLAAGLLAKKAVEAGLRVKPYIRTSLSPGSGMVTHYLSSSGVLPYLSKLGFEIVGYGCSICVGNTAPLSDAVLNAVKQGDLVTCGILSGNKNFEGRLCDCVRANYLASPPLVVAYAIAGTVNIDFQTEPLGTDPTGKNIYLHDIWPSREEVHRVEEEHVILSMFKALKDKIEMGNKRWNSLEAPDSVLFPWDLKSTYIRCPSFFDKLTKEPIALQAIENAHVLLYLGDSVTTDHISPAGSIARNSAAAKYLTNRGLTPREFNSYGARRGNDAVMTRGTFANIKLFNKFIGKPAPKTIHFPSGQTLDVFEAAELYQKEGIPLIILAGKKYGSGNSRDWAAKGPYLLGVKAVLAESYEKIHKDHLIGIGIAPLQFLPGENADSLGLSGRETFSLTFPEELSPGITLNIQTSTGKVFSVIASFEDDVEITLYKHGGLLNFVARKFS
UniProt Q7Z5Y7: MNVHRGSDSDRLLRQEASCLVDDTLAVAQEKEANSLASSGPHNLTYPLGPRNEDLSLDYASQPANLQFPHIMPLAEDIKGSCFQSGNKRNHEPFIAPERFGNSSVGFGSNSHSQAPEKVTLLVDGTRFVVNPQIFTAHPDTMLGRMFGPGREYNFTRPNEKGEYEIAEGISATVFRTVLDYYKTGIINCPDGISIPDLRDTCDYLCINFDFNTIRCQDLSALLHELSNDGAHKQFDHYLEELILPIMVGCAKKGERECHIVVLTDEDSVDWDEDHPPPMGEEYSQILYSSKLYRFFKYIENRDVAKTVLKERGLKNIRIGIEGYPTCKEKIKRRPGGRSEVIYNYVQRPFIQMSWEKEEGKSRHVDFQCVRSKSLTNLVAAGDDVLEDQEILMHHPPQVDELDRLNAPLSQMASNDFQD
UniProt Q9BVA0, whole entry, looked up: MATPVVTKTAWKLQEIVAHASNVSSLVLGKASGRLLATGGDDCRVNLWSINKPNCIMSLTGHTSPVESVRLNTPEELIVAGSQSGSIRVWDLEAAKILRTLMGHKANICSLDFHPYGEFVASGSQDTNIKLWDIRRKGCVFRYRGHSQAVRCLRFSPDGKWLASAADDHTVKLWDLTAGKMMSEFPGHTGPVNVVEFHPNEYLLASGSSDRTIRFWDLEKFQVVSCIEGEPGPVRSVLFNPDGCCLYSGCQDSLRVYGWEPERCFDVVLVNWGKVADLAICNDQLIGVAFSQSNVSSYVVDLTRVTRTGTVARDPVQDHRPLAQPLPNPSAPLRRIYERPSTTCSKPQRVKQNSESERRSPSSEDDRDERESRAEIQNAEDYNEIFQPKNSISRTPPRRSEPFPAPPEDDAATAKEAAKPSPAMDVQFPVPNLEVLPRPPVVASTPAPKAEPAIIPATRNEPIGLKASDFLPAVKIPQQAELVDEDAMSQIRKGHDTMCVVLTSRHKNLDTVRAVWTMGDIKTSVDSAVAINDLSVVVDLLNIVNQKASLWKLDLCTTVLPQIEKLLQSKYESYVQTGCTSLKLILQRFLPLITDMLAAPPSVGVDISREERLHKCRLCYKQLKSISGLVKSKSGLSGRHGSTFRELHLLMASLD

Experiments:
Assay in all cases: log2 fold change, soluble protein after heating vs DMSO (PISA); higher = thermal stabilisation; K562 lysate, 10 uM; active = over 0.2 and 3.5 SD of the protein, either way, in both replicates (recomputed)
lapatinib = compound: CS(=O)(=O)CCNCc1ccc(-c2ccc3ncnc(Nc4ccc(OCc5cccc(F)c5)c(Cl)c4)c3c2)o1 [lapatinib]
How it was run: (§1)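 Dounce homogenisation of K562 pellets in PBS pH 7.4 with 1 mM MgCl2 produced a crude extract, used at 1 mg/mL protein. Exposure to 10 μM compound lasted 30 min, and aliquots were then heated for 3 min across 48°C-58°C, pooled and brought to 0.5% NP-40 at 4°C. The supernatant after 21,000xg for 90 min was quantified by TMTpro 16plex LC-MS/MS with channel sums equalised. Duplicate values are given as log-two fold change in thermal stability relative to solvent controls.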

pictilisib = compound: CS(=O)(=O)N1CCN(Cc2cc3nc(-c4cccc5[nH]ncc45)nc(N4CCOCC4)c3s2)CC1 [pictilisib]
How it was run: as §1

crizotinib = compound: C[C@@H](Oc1cc(-c2cnn(C3CCNCC3)c2)cnc1N)c1c(Cl)ccc(F)c1Cl [crizotinib]
How it was run: as §1

[1] = compound: C[C@H](C1=CC=C(C=C1)C(=O)NC2=C3C=CNC3=NC=C2)N
How it was run: as §1

duvelisib = compound: C[C@H](Nc1ncnc2nc[nH]c12)c1cc2cccc(Cl)c2c(=O)n1-c1ccccc1 [duvelisib]
How it was run: as §1

gandotinib = compound: Cc1cc(Nc2cc(CN3CCOCC3)c3nc(C)c(Cc4ccc(Cl)cc4F)n3n2)n[nH]1 [gandotinib]
How it was run: as §1

tozasertib = compound: Cc1cc(Nc2cc(N3CCN(C)CC3)nc(Sc3ccc(NC(=O)C4CC4)cc3)n2)n[nH]1 [tozasertib]
How it was run: as §1

doramapimod = compound: Cc1ccc(-n2nc(C(C)(C)C)cc2NC(=O)Nc2ccc(OCCN3CCOCC3)c3ccccc23)cc1 [doramapimod]
How it was run: as §1

bafetinib = compound: Cc1ccc(NC(=O)c2ccc(CN3CC[C@H](N(C)C)C3)c(C(F)(F)F)c2)cc1Nc1nccc(-c2cncnc2)n1 [bafetinib]
How it was run: as §1

[2] = compound: Cc1cccc(CC(=O)N2CCc3c2ccc(-c2cn(C)c4ncnc(N)c24)c3F)n1
How it was run: as §1

nilotinib = compound: Cc1cn(-c2cc(NC(=O)c3ccc(C)c(Nc4nccc(-c5cccnc5)n4)c3)cc(C(F)(F)F)c2)cn1 [nilotinib]
How it was run: as §1

[3] = compound: Cc1nc(Nc2n[nH]c3c2CN(C(=O)N[C@H](CN(C)C)c2ccccc2)C3(C)C)c2sccc2n1
How it was run: as §1

dasatinib = compound: Cc1nc(Nc2ncc(C(=O)Nc3c(C)cccc3Cl)s2)cc(N2CCN(CCO)CC2)n1 [dasatinib]
How it was run: as §1

[4] = compound: Cc1ncc(-c2ccnc(Nc3ccc(S(C)(=O)=O)cc3)n2)n1C(C)C
How it was run: as §1

[5] = compound: Cn1cc(-c2ccc3c(c2)CCN3C(=O)Cc2cccc(C(F)(F)F)c2)c2c(N)ncnc21
How it was run: as §1

quisinostat = compound: Cn1cc(CNCC2CCN(c3ncc(C(=O)NO)cn3)CC2)c2ccccc21 [quisinostat]
How it was run: as §1

tipifarnib = compound: Cn1cncc1[C@@](N)(c1ccc(Cl)cc1)c1ccc2c(c1)c(-c1cccc(Cl)c1)cc(=O)n2C [tipifarnib]
How it was run: as §1

[6] = compound: NC(=O)Nc1cc(-c2cccc(F)c2)sc1C(=O)N[C@H]1CCCNC1
How it was run: as §1

[7] = compound: NC(=O)c1cnc(N[C@@H]2CCCC[C@@H]2N)nc1Nc1cccc(-n2nccn2)c1
How it was run: as §1

[8] = compound: NC1(c2ccc(-c3nc4ccn5c(=O)[nH]nc5c4cc3-c3ccccc3)cc2)CCC1
How it was run: as §1

Measured: log2 fold change

ITGB5 (UniProt P18084)
inactive: lapatinib 0.014 | pictilisib -0.019 | crizotinib 0.019 | [1] 0.014 | duvelisib 0.033 | gandotinib 0.02 | tozasertib 0.046 | doramapimod 0.01 | bafetinib 0.027 | [2] -0.012 | nilotinib -0.052 | [3] 0.04 | dasatinib 0.001 | [4] 0.065 | [5] -0.065 | quisinostat 0.085 | tipifarnib 0.083 | [6] 0.004 | [7] -0.038 | [8] 0.013

IPO8 (UniProt O15397)
inactive: lapatinib -0.026 | pictilisib 0.023 | crizotinib -0.037 | [1] -0.006 | duvelisib 0.015 | gandotinib -0.149 | tozasertib 0.001 | doramapimod -0.001 | bafetinib -0.034 | [2] 0.017 | nilotinib -0.042 | [3] 0.028 | dasatinib 0.008 | [4] -0.004 | [5] -0.006 | quisinostat -0.016 | tipifarnib 0.031 | [6] 0.011 | [7] 0.022 | [8] -0.005

ITFG1 (UniProt Q8TB96)
inactive: lapatinib 0.025 | pictilisib -0.101 | crizotinib -0.033 | [1] -0.009 | duvelisib -0.047 | gandotinib -0.015 | tozasertib -0.025 | doramapimod -0.054 | bafetinib -0.089 | [2] 0.023 | nilotinib -0.006 | [3] -0.066 | dasatinib -0.013 | [4] 0.036 | [5] 0.01 | quisinostat 0.039 | tipifarnib -0.015 | [6] 0.041 | [7] 0.057 | [8] 0.002

JUND (UniProt P17535)
inactive: lapatinib 0.033 | pictilisib -0.034 | crizotinib -0.012 | [1] -0.179 | duvelisib -0.065 | gandotinib 0.163 | tozasertib -0.028 | doramapimod 0.021 | bafetinib 0.045 | [2] 0.073 | nilotinib -0.025 | [3] 0.06 | dasatinib 0.013 | [4] 0.019 | [5] 0.001 | quisinostat -0.052 | tipifarnib -0.037 | [6] -0.019 | [7] 0.03 | [8] 0.033

IPO4 isoform 2 (UniProt Q8TEX9)
inactive: lapatinib -0.003 | pictilisib -0.014 | crizotinib -0.027 | [1] -0.065 | duvelisib 0.019 | gandotinib 0.045 | tozasertib 0.002 | doramapimod 0.032 | bafetinib 0.025 | [2] 0.017 | nilotinib 0.048 | [3] -0.011 | dasatinib 0.035 | [4] 0.001 | [5] 0.027 | quisinostat -0.061 | tipifarnib -0.011 | [6] -0.009 | [7] 0.012 | [8] 0.009

KCTD3 (UniProt Q9Y597)
inactive: lapatinib -0.012 | pictilisib -0.013 | crizotinib -0.012 | [1] -0.079 | duvelisib -0.022 | gandotinib 0.044 | tozasertib 0.001 | doramapimod 0.044 | bafetinib -0.054 | [2] 0.017 | nilotinib 0.031 | [3] 0.014 | dasatinib 0.063 | [4] -0.019 | [5] 0.029 | quisinostat -0.081 | tipifarnib -0.034 | [6] -0.02 | [7] -0.021 | [8] 0.033

IRF2BPL (UniProt Q9H1B7)
inactive: lapatinib 0.017 | pictilisib 0.024 | crizotinib -0.006 | [1] -0.216 | duvelisib 0.006 | gandotinib 0.07 | tozasertib -0.005 | doramapimod -0.004 | bafetinib -0.015 | [2] 0.075 | nilotinib 0.001 | [3] 0.005 | dasatinib -0.043 | [4] 0.054 | [5] -0.059 | quisinostat 0.032 | tipifarnib -0.069 | [6] -0.01 | [7] 0 | [8] 0

ISCA2 (UniProt Q86U28)
inactive: lapatinib 0.036 | pictilisib -0.035 | crizotinib 0.005 | [1] 0.009 | duvelisib 0.022 | gandotinib 0.063 | tozasertib 0.1 | doramapimod 0.032 | bafetinib 0.029 | [2] 0.022 | nilotinib 0.013 | [3] 0.061 | dasatinib 0.012 | [4] -0.079 | [5] -0.05 | quisinostat 0.001 | tipifarnib 0.224 | [6] -0.041 | [7] -0.039 | [8] 0.071

INTS8 (UniProt Q75QN2)
inactive: lapatinib 0.028 | pictilisib 0.104 | crizotinib -0.046 | [1] 0.015 | duvelisib -0.051 | gandotinib -0.163 | tozasertib 0.04 | doramapimod 0.021 | bafetinib -0.142 | [2] 0.036 | nilotinib 0.035 | [3] 0.044 | dasatinib -0.072 | [4] 0.049 | [5] 0.021 | quisinostat 0.003 | tipifarnib -0.009 | [6] 0.067 | [7] -0.035 | [8] -0.029

KCTD10 (UniProt Q9H3F6)
inactive: lapatinib 0.005 | pictilisib 0 | crizotinib -0.016 | [1] 0.139 | duvelisib 0.116 | gandotinib -0.074 | tozasertib 0.028 | doramapimod 0.003 | bafetinib -0.078 | [2] -0.102 | nilotinib 0.039 | [3] 0.003 | dasatinib -0.021 | [4] -0.021 | [5] -0.038 | quisinostat 0.02 | tipifarnib -0.065 | [6] -0.009 | [7] 0.052 | [8] -0.106

KDM1A (UniProt O60341)
inactive: lapatinib -0.01 | pictilisib -0.029 | crizotinib -0.036 | [1] -0.055 | duvelisib -0.025 | gandotinib -0.056 | tozasertib -0.031 | doramapimod 0.015 | bafetinib -0.016 | [2] 0.025 | nilotinib -0.009 | [3] 0.007 | dasatinib -0.023 | [4] 0.005 | [5] 0.012 | quisinostat -0.045 | tipifarnib -0.052 | [6] 0.029 | [7] 0.007 | [8] -0.026

IRF2BP1 (UniProt Q8IU81)
inactive: lapatinib -0.01 | pictilisib 0.008 | crizotinib -0.052 | [1] -0.004 | duvelisib -0.086 | gandotinib 0.004 | tozasertib 0 | doramapimod 0.105 | bafetinib -0.1 | [2] 0.043 | nilotinib 0.018 | [3] 0.016 | dasatinib -0.082 | [4] -0.019 | [5] 0.032 | quisinostat -0.099 | tipifarnib -0.124 | [6] 0.057 | [7] -0.03 | [8] 0.045

IREB2 (UniProt P48200)
inactive: lapatinib -0.013 | pictilisib -0.001 | crizotinib -0.002 | [1] 0.003 | duvelisib -0.005 | gandotinib -0.051 | tozasertib -0.021 | doramapimod -0.012 | bafetinib -0.043 | [2] -0.002 | nilotinib -0.022 | [3] -0.004 | dasatinib 0.008 | [4] 0.008 | [5] 0.015 | quisinostat 0.019 | tipifarnib 0.027 | [6] 0.03 | [7] 0.05 | [8] 0.016

ISOC2 (UniProt Q96AB3)
inactive: lapatinib -0.036 | pictilisib 0.038 | crizotinib 0.023 | [1] 0.05 | duvelisib -0.038 | gandotinib -0.076 | tozasertib -0.065 | doramapimod -0.014 | bafetinib -0.058 | [2] 0.095 | nilotinib 0.012 | [3] 0.022 | dasatinib 0.026 | [4] 0.091 | [5] 0 | quisinostat -0.053 | tipifarnib -0.017 | [6] -0.05 | [7] -0.045 | [8] -0.036

KCTD20 (UniProt Q7Z5Y7)
inactive: lapatinib -0.064 | pictilisib 0.039 | crizotinib -0.077 | [1] 0.006 | duvelisib -0.082 | gandotinib 0.006 | tozasertib -0.119 | doramapimod -0.01 | bafetinib 0.007 | [2] -0.005 | nilotinib 0.054 | [3] -0.021 | dasatinib -0.096 | [4] 0.074 | [5] 0.039 | quisinostat -0.138 | tipifarnib -0.028 | [6] 0.109 | [7] 0.089 | [8] -0.007

2 consecutive records already listed, for reference:
IRF2BP1 (UniProt Q8IU81)
inactive: lapatinib -0.01 | pictilisib 0.008 | crizotinib -0.052 | [1] -0.004 | duvelisib -0.086 | gandotinib 0.004 | tozasertib 0 | doramapimod 0.105 | bafetinib -0.1 | [2] 0.043 | nilotinib 0.018 | [3] 0.016 | dasatinib -0.082 | [4] -0.019 | [5] 0.032 | quisinostat -0.099 | tipifarnib -0.124 | [6] 0.057 | [7] -0.03 | [8] 0.045

IREB2 (UniProt P48200)
inactive: lapatinib -0.013 | pictilisib -0.001 | crizotinib -0.002 | [1] 0.003 | duvelisib -0.005 | gandotinib -0.051 | tozasertib -0.021 | doramapimod -0.012 | bafetinib -0.043 | [2] -0.002 | nilotinib -0.022 | [3] -0.004 | dasatinib 0.008 | [4] 0.008 | [5] 0.015 | quisinostat 0.019 | tipifarnib 0.027 | [6] 0.03 | [7] 0.05 | [8] 0.016

The list goes on:

KATNB1 (UniProt Q9BVA0)
inactive: lapatinib -0.009 | pictilisib 0.013 | crizotinib -0.021 | [1] 0.051 | duvelisib 0.016 | gandotinib -0.042 | tozasertib 0.015 | doramapimod 0.02 | bafetinib -0.011 | [2] 0.014 | nilotinib 0.119 | [3] -0.052 | dasatinib 0.044 | [4] 0.057 | [5] 0.018 | quisinostat -0.102 | tipifarnib -0.055 | [6] 0.027 | [7] 0.014 | [8] 0.008
